These are yes or no findings as the source states them, for the method shown. Some binding calls cover weakened binding; strength is not graded here.
Target: GABA(A) receptor-associated protein, GABARAP (human (endogenous in H1792 and UW-lung-16)), O95166
Assay: SDS-PAGE without reducing agent and without heating, immunoblot; lysates of cells treated with AM-101 (3 uM, time course to 72 h; Nix also by dose) or radiation; beta-mercaptoethanol left out of the sample buffer, samples not heated; 4-15% gradient gel; monomer and dimer bands detected with GABARAP or Nix antibody
Settings: remark: other sources report otherwise

binding: binds
B1: GABA(A) receptor-associated protein, GABARAP, O95166 1-117 (protein)
chain: MKFVYKEEHPFEKRRSEGEKIRKKYPDRVPVIVEKAPKARIGDLDKKKYLVPSDLTVGQFYFLIRKRIHLRAEDALFFFVNNVIPPTSATMGQLYQEHHEEDFFLYIAYSDESVYGL

Source: publication PMC11430345
